Data: patent publication US20230203435A1
No constants are given. Whether binding was seen depends on the method and setting. Some entries that bind do so weakly or less than the wild type.

Chains of the proteins cited; added tags and fusions are not shown. Residues count along the entry.
UniProt P10145, residues 28-99: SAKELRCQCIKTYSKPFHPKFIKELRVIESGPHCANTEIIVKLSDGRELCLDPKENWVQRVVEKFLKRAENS

Target: interleukin 8 (CXCL8) (Shenandoah Biotechnology, Inc.) (UniProt P10145)
Assay: ELISA on plate-coated interleukin 8 (CXCL8) (5 ug/mL), absorbance at 450 nm

binding: binds
B1: anti-IL-8 antibody (mouse/human chimeric antibody), light chain FR3 not substituted (antibody, human IgG1, kappa, V domains shown)
VH: EVKLVESGGGLVKPGGSLKLSCAASGFTFNNYAMSWVRQTPEKRLEWVASISSGGNTYYPDSVKGRFTLSRDNARNILYLQMSRLRSEDTAMYYCARDKLRLPNWYFDVWGAGTTVTVSS
VL: DIVLTQSPPSLAVSLGQRATISCKASQSVDYDGDSYMNWYQQKPGQPPKVLIYGASNLESGIPARFSGSGSGTDFTLNIYPVEEEDAATYYCQQSNEDPPTFGGGTKLEIKR
